Measurements from PubChem BioAssay AID2685 (National Center for Advancing Translational Sciences (NCATS), 2010).
The list shows a part of the results. The main result of the screen is listed elsewhere. These columns were measured beside it and carry no call. Compounds called inactive in the main read-out are mostly missing here. Potencies come from curve fits of mixed quality, noted in brackets.

Assay: qHTS Assay for Lipid Storage Modulators in Drosophila S3 Cells;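 for cell number change: cells counted by Cell Tracker Red CMTPX staining in the red channel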
Settings: BODIPY lipid droplet fluorescence, 18-24 h; for cell number change: measured here: cell count max response, cells fed with added oleic acid
Summary of the method: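 Laser-scanning cytometry quantifies lipid droplet accumulation (500–530 nm total intensity; droplet/cell object ratio) in oleic acid-fed (400 uM added) Drosophila S3 cells treated with a concentration series. 20 uM Triacsin C defined 100% inhibition.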

[1] = measured here: cell number channel AC50, cells fed with added oleic acid
[2] = measured here: lipid fluorescence (Fed channel) AC50, cells fed with added oleic acid

| SMILES | cell number change | AC50 [1] | AC50 [2] |
| --- | --- | --- | --- |
| Cc1cc(C)n(-c2nnc(N3CCN(c4ccccc4)CC3)nn2)n1 | -33.8% | 1460 nM [falling, full curve, poor fit] | 184 nM [falling, full curve, poor fit] |
| Cc1cc(NCc2cccnc2)nc(N)n1 | 5.56% |  |  |
| O=C(CCC(=O)c1ccc(Br)cc1)Nc1ccc(F)cc1 | 4.46% |  |  |
| Cc1ccccc1CSCC(=O)c1c(N)n(CC(C)C)c(=O)n(C)c1=O | -2.01% | 580 nM [rising, full curve] |  |
| CCc1ccccc1N(CC(=O)N1CCN(c2ccccc2F)CC1)S(C)(=O)=O | -4.87% |  | 16400 nM [rising, single point] |
| Cc1ccc(S(=O)(=O)Cn2nnnc2C(c2ccc(F)cc2)N2CCCCC2)cc1 (stereo unspecified) | -2.63% |  | 164 nM [rising, full curve, poor fit] |
| COc1ccc(N(C(=O)c2cc3ccccc3oc2=O)C2C=CS(=O)(=O)C2)cc1 (stereo unspecified) | 8.2% |  | 461 nM [falling, partial curve, poor fit] |
| COc1ccc(CNC(=O)C2CCCN2CCc2ccccc2)cc1OC (stereo unspecified) |  | 411 nM [falling, single point] | 29100 nM [falling, single point] |
| NC(=O)c1ccc(SCC(=O)OCC(=O)N2CCN(C(=O)c3ccco3)CC2)c([N+](=O)[O-])c1 | 2.57% | 411 nM [falling, full curve, poor fit] | 366 nM [falling, full curve] |
| COC(=O)c1ccc(C2C(C#N)=C(N)Oc3cc(O)ccc32)cc1 (stereo unspecified) | -8.99% |  | 29100 nM [rising, single point] |
| O=C(CCc1nnc2ccc(NCc3ccco3)nn12)Nc1ccccn1 | -17.7% | 2590 nM [falling, single point] | 184 nM [falling, full curve] |
| CC1CCCN(Cc2cnc(Cl)s2)C1 (stereo unspecified) | -17.3% |  | 1160 nM [falling, full curve] |
| Cc1ccc(/C=C/C(=O)OCC(=O)NCCN2C(=O)CSC2=O)o1 |  |  | 29100 nM [rising, partial curve, poor fit] |
| COc1cccc(-c2cc(C(=O)Nc3ccc([N+](=O)[O-])cn3)c3ccccc3n2)c1 | 15.9% |  |  |
| O=C(CNC(=O)c1ccco1)N=Nc1c(O)n(CCc2ccccc2)c2ccccc12 | 0.213% |  |  |
| CCCC(=O)Nc1cccc(Oc2nc(C)cc(C)c2C#N)c1 | -5.44% |  |  |
| Cc1cc(-c2nn(-c3ccccc3F)cc2CN2CCCC(C(N)=O)C2)c(C)s1 (stereo unspecified) | 12% |  |  |
| COc1ccc2c(c1)CCc1sc(NC(=O)c3ccco3)nc1-2 | -11.2% | 3260 nM [rising, single point] | 6510 nM [rising, single point] |
| O=C(NC1CCCCC1)C1CCN(c2nnnn2-c2ccccc2)CC1 | -2.1% |  | 5.17 nM [rising, full curve, poor fit] |
| CN(Cc1cccnc1)C(=O)c1cc(COc2ccc3c(c2)CCCC3)on1 | -50% | 29100 nM [falling, single point] | 29100 nM [falling, single point] |
| Cc1cccc(Nc2nc(Cl)ncc2F)c1C | 28.5% |  |  |

Arranged by molar mass (low to high): part of the list above.

| SMILES | cell number change | AC50 [1] | AC50 [2] |
| --- | --- | --- | --- |
| COC(=O)c1ccc(C2C(C#N)=C(N)Oc3cc(O)ccc32)cc1 (stereo unspecified) | -8.99% |  | 29100 nM [rising, single point] |
| COc1ccc2c(c1)CCc1sc(NC(=O)c3ccco3)nc1-2 | -11.2% | 3260 nM [rising, single point] | 6510 nM [rising, single point] |
| O=C(NC1CCCCC1)C1CCN(c2nnnn2-c2ccccc2)CC1 | -2.1% |  | 5.17 nM [rising, full curve, poor fit] |

Remaining list, next part.

| SMILES | cell number change | AC50 [1] | AC50 [2] |
| --- | --- | --- | --- |
| CCCCn1c(O)c(N=NC(=O)c2ccco2)c2ccccc21 | 10.4% | 731 nM [rising, full curve, poor fit] |  |
| CC1CCCCN1C(=O)Cn1c(=O)n(C2CCCCC2)c(=O)c2ccccc21 (stereo unspecified) | 6.8% |  | 29100 nM [rising, single point] |
| O=C(CC(Cc1ccccc1)C(=O)O)Nc1ccc(F)cc1 (stereo unspecified) | 4.46% |  | 6510 nM [falling, single point] |
| O=C(CSc1nc2[nH]ncc2c(=O)[nH]1)NCc1ccccc1Cl | -2.49% |  |  |
| CC(=O)Nc1ccc(S(=O)(=O)N(C)CC(=O)OCC(=O)NNC(=O)c2ccccc2F)cc1 | -16.5% |  | 1300 nM [falling, full curve, poor fit] |
| C#CCSc1nc(-c2ccccc2)cc(C(F)(F)F)c1C#N |  | 206 nM [rising, full curve] |  |
| NC(=O)c1ccc[n+](CC(=O)c2cccc([N+](=O)[O-])c2)c1 | -2.11% |  | 4.61 nM [falling, full curve, poor fit] |
| CCc1c(C(=O)Nc2ccc(C)c(C)c2)[nH]c(C)c1C(C)=O | 20.8% |  | 29100 nM [rising, single point] |
| Cc1ccc(N(CC(=O)NCCSc2nc3ccccc3s2)S(=O)(=O)c2ccccc2)c(C)c1 | -12.7% |  | 13000 nM [falling, single point] |
| N#Cc1ccccc1CSc1nc2ccsc2c(=O)n1Cc1ccccn1 | 1.27% |  | 651 nM [rising, partial curve] |
| COc1cc(/C=C(\C#N)c2nc3ccccc3n2C)cc(OC)c1O | -12.1% | 580 nM [falling, full curve, poor fit] |  |
| COC(C(=O)NNS(=O)(=O)c1ccc([N+](=O)[O-])cc1)c1ccccc1 (stereo unspecified) | -3.85% |  | 29100 nM [rising, single point] |
| CCOC(=O)C1CCN(CCC(=O)Nc2ccc(C)c(C)c2)CC1 | 46.5% |  |  |
| CC(C)NC(=O)NC(=O)CSc1ccc(S(=O)(=O)N2CCOCC2)cn1 | 50% | 16400 nM [rising, single point] |  |
| Cn1cc(C(=O)N/N=C/c2ccc([N+](=O)[O-])cc2)c2ccccc21 | 61.8% | 4110 nM [rising, partial curve, poor fit] | 1460 nM [rising, full curve] |
| CCc1ccc(-c2nc(SCC(=O)NC3CC3)n[nH]2)cc1 |  |  | 5170 nM [falling, single point] |
| CCCCC(=O)Nc1c(O)c2ccccc2[nH]c1=O | 33% | 10300 nM [rising, single point] |  |
| Nc1ccc(C(CC(=O)O)n2cccc2)cc1 (stereo unspecified) | 24.1% | 146 nM [rising, full curve, poor fit] | 6.51 nM [rising, full curve, poor fit] |
| Cc1cccc(C(=O)NCC(=O)OCC(=O)c2ccc(Cl)s2)c1 | -13.6% |  |  |
| O=C(Cn1cnc2ccccc2c1=O)N(Cc1ccco1)c1ccc(O)cc1 | 3.04% |  |  |
| O=C(NCCCN1CCCC1=O)C(=O)NCC1OCCN1S(=O)(=O)c1ccc(Br)cc1 (stereo unspecified) | -11.4% |  |  |

| SMILES | cell number change | AC50 [1] | AC50 [2] |
| --- | --- | --- | --- |
| Cc1c(C(=O)N(C)CCC#N)oc2ccc(S(=O)(=O)N3CC(C)CC(C)C3)cc12 (stereo unspecified) | 23.8% |  | 6510 nM [falling, single point] |
| Cc1cnc(NC(=O)c2sc(Nc3ccccc3)nc2N)o1 | -60.5% | 25900 nM [falling, partial curve, poor fit] | 23100 nM [falling, partial curve, poor fit] |
| CN(C)CCOC(=O)C(c1ccccc1)C1(O)CCCC1 (stereo unspecified) |  |  | 184 nM [falling, full curve, poor fit] |
| COc1ccc(NC(=O)c2sc3nc(Cc4ccccc4)cc(C(F)(F)F)c3c2N)cc1OC | 4.66% |  | 29100 nM [falling, partial curve, poor fit] |
| Nc1nonc1-n1nnc(C(=O)N/N=C/c2ccc(OCc3cccc(Cl)c3)cc2)c1CN1CCCCC1 | 72.1% | 29100 nM [rising, single point] |  |
| CC1CC1c1ccc(/C=C(\C#N)C(=O)Nc2ccccc2Cl)o1 (stereo unspecified) | 12.1% |  | 1300 nM [falling, single point] |
| O=C(C1CCCO1)N1CCN(C(=S)NC2CC2)CC1 (stereo unspecified) | -24.4% |  |  |
| COc1ccccc1N1CCN(S(=O)(=O)c2ccc(F)cc2)CC1 | -9.55% |  |  |
| CC(CC(=O)N1CCN(c2ccc(C(F)(F)F)cn2)CC1)n1ccnc1 (stereo unspecified) | 14.7% | 2910 nM [rising, partial curve, poor fit] | 3260 nM [rising, full curve, poor fit] |
| CC(=O)Nc1ccc2nc(CN3CCC(CO)(CCc4ccccc4)CC3)ccc2c1 | -9.03% |  | 8.2 nM [falling, full curve, poor fit] |
| CCOC(=O)N1CCN(S(=O)(=O)c2ccc(C(=O)Nc3nc4ccccc4s3)cc2)CC1 | 159% | 29100 nM [rising, single point] |  |
| CCOc1ccc(NC(=S)Nc2ccc(C)c([N+](=O)[O-])c2)cc1 | -1.86% |  | 6510 nM [rising, partial curve, poor fit] |
| Cc1cc(C)c2nc(N3CCCC(C(=O)N4CCC(C(N)=O)CC4)C3)sc2c1 (stereo unspecified) |  |  | 580 nM [rising, single point] |
| CC1=CC(=O)C2=C(C)CC[C@@H]3[C@H](OC(=O)[C@H]3C)[C@@H]12 | 0.825% | 5.17 nM [falling, full curve, poor fit] | 3260 nM [falling, single point] |
| CC1CC(C)CN(c2ncc3c(n2)CC(c2ccc(Cl)cc2)CC3=O)C1 (stereo unspecified) |  | 1840 nM [falling, partial curve] | 4110 nM [falling, full curve, poor fit] |
| CN1CCN(CC(=O)O)CC1 | 5.93% |  |  |
| O=C(CSc1ncccc1C(=O)O)c1cccc(C(F)(F)F)c1 |  |  | 5800 nM [falling, single point] |
| CN(C)c1ccc(/C=C(/C#N)C(=O)NCc2ccccc2)o1 |  |  | 20600 nM [falling, single point] |
| N#C/C(=C/c1ccccc1)c1nn(CCO)c(N)c1C#N | 115% | 1840 nM [rising, full curve] | 651 nM [rising, single point] |
